Results taken from patent CN113388035A.
These are yes or no findings as the source states them, for the method shown. Some entries that bind do so weakly or less than the wild type.

Sequences of proteins named here, by UniProt entry; tags and fusion partners are left off. Residues count along the entry.
UniProt Q969D9, residues 29-159: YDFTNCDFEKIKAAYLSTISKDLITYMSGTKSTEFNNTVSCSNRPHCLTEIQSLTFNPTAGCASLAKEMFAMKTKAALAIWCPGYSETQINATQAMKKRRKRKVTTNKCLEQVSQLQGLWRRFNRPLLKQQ

Target: 人TSLP (human thymic stromal lymphopoietin) protein (human) (UniProt Q969D9)
Assay: ELISA, antigen coated at 1ug/ml, HRP-goat anti-human IgG

B1: hzD01Lm12 (humanized, affinity-matured anti-human TSLP antibody) (antibody, human IgG2, V domains shown, not shown: large carriers)
VH: EVQLVQSGAEVKKPGASVKVSCKASGYTFTNYFIDWVRQAPGQGLEWIGVINPGSGGTNFNEKFKGRVTMTRDTSTSTAYMELSSLRSEDTAVYFCARESEVGEGFAYWGQGTLVTVSS
VL: DIQMTQSPSSLSASVGDRVTISCRASQDISNYLNWYQQKPGKAPKLLIYYTSTLHSGVPSRFSGSGSGTDYTLTISSLQPEDIATYFCQQFDTLPYPFGQGTKLEIK
  binding: binds
